Values of other authors in patent publication US9333241B2, “Thyroid-stimulating hormone receptor polypeptide agonist glycoforms to treat metabolic syndrome” (LipoLytics Therapeutics, LLC, priority 2005, dated 2016).
Some of these results come from one statement about several compounds together.

System: rodent models of the metabolic syndrome
Details: intraperitoneal (ip) injection, rodents

B1: CGH: heterodimeric glycoprotein of GPHA2 and GPHB5 subunits, produced recombinantly in CHO cells (protein, listed as Homo sapiens)
alpha: QEAVIPGCHLHPFNVTVRSDRQGTCQGSHVAQACVGHCESSAFPSRYSVLVASGYRHNITSVSQCCTISGLKKVKVQLQCVGSRREELEIFTARACQCDMCRLSRY
beta: ASSGNLRTFVGCAVREFTFLAKKPGCRGLRITTDACWGRCETWEKPILEPPYIEAHHRVCTYNETKQVTVKLPNCAPGVDPFYTYPVAIRCDCGACSTATTECETI
doses producing lipolysis and metabolic benefits: 50 to 250 µg/kg/day
